Experimental data taken from patent publication US4600788A, “4'-flavonecarboxylic acids and pharmaceutically acceptable derivatives their preparation, and their application” (Societe Cortial, S.A., priority 1983, dated 1986).

Tested on: rats
Experiment: Neuropathy with streptozotocin: sorbitol and inositol levels in sciatic nerves, glycemia
Format: in vivo
Details: 100 mg/kg/d
Method: Four batches of 10 rats weighing about 200 g were treated from D-2 to D+3 with a gummy julep of the product to be tested. On D O the animals received an i.p. injection of 100 mg/kg of streptozotocin dissolved in a citrate buffer. The glycemia of the rats was determined 24 hours and 3 days after injection of the streptozotocin and the sciatic nerves were removed to determine the sorbitol and inositol levels. […] COR 35 01 had no effect on the glycemia of the animals.

SMILES: CCCc1c(-c2ccc(C(=O)O)cc2)oc2cc(NS(C)(=O)=O)ccc2c1=O [COR 35 01, 7-methanesulfonamido-3-propyl-4'-flavonecarboxylic acid]
- effect on the glycemia of the animals: no effect
- glycemia (D1) (D1, control 4.03±0.89): 4.07±1.03
- glycemia (D2) (D2, control 5.44±0.90): 6.30 ± 0.97
